Measured values from paper PMC9887599, “Synthesis, Optical Properties, and Antiproliferative Evaluation of NBD-Triterpene Fluorescent Probes” (Journal of Natural Products, 2022).

System: B16-F10, HT-29, and HepG2 cells
Assay: Cellular uptake and distribution by confocal microscopy
Format: cell-based, mouse, human
Settings: at IC50 concentrations, 30 min to 24 h

Row | SMILES | uptake and subcellular distribution of green fluorescence
1 | CC1(C)CC[C@]2(C(=O)O)CC[C@]3(C)C(=CC[C@@H]4[C@@]5(C)C[C@@H](OC(=O)CCCCCNc6ccc([N+](=O)[O-])c7nonc67)[C@H](O)C(C)(C)[C@@H]5CC[C@]43C)[C@@H]2C1 [Compound 2, 3β-Hydroxy-2α-((6-((7-nitrobenzo[c][1,2,5]oxadiazol-4-yl)amino)hexanoyl)oxy)olean-12-en-28-oic Acid] | cytoplasmic distribution
2 | CC1(C)CC[C@]2(C(=O)O)CC[C@]3(C)C(=CC[C@@H]4[C@@]5(C)CC[C@H](OC(=O)CCCCCNc6ccc([N+](=O)[O-])c7nonc67)C(C)(C)[C@@H]5CC[C@]43C)[C@@H]2C1 [Compound 1, 3β-((6-((7-Nitrobenzo[c][1,2,5]oxadiazol-4-yl)amino)hexanoyl)oxy)olean-12-en-28-oic Acid] | cytoplasmic distribution
